The assay has as its target T1, bovine serum albumin (bovine, UniProt P02769 25-607).
T1 construct: Commercial BSA used to coat control plates; also called BSA; BSA immobilized plate
Briefly: CH-296 solution left on a BSA-coated plate, washed, then virus infection of NIH/3T3 cells; G418r colony number similar to that without CH-296 (indirect).

Amino acid sequences for entries named in this document (tags omitted). Residues count along the entry.
UniProt P02769, 25-607 limits assumed: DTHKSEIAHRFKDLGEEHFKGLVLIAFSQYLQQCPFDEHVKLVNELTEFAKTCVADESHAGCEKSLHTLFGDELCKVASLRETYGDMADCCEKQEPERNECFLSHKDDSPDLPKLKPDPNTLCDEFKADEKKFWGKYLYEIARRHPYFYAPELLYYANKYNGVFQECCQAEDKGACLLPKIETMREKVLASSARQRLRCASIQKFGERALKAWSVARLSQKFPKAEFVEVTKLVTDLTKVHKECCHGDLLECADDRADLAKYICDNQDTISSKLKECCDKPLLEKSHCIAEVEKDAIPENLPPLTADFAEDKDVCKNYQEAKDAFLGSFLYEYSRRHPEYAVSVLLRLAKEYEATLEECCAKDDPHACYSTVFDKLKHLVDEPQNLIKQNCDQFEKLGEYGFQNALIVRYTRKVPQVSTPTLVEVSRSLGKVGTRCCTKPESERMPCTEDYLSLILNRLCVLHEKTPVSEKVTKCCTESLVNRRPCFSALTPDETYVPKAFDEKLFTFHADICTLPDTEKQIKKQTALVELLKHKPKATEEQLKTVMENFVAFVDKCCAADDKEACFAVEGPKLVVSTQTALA

B1: CH-296 (other)
chain: PTDLRFTNIGPDTMRVTWAPPPSIDLTNFLVRYSPVKNEEDVAELSISPSDNAVVLTNLLPGTEYVVSVSSVYEQHESTPLRGRQKTGLDSPTGIDFSDITANSFTVHWIAPRATITGYRIRHHPEHFSGRPREDRVPHSRNSITLTNLTPGTEYVVSIVALNGREESPLLIGQQSTVSDVPRDLEVVAATPTSLLISWDAPAVTVRYYRITYGETGGNSPVQEFTVPGSKSTATISGLKPGVDYTITVYAVTGRGDSPASSKPISINYRTEIDKPSMAIPAPTDLKFTQVTPTSLSAQWTPPNVQLTGYRVRVTPKEKTGPMKEINLAPDSSSVVVSGLMVATKYEVSVYALKDTLTSRPAQGVVTTLENVSPPRRARVTDATETTITISWRTKTETITGFQVDAVPANGQTPIQRTIKPDVRSYTITGLQPGTDYKIYLYTLNDNARSSPVVIDASTAIDAPSNLRFLATTPNSLLVSWQPPRARITGYIIKYEKPGSPPREVVPRPRPGVTEATITGLEPGTEYTIYVIALKNNQKSEPLIGRKKTDELPQLVTLPHPNLHGPEILDVPST
notes: Added in solution at 10, 40 and 250 ug/ml to BSA-coated plates; also called polypeptide CH-296
On to B1, for which the binding result is on record as “no binding (tested: 10, 40, 250 µg/ml)”.

The record behind these values is patent publication US20060030046A1 (TAKARA BIO, published 2006).
